Test results from patent US20250340574A1, “MODULATORS OF CYSTIC FIBROSIS TRANSMEMBRANE CONDUCTANCE REGULATOR” (Vertex Pharmaceuticals Incorporated, priority 2022, published 2025).
Structures were worked out from names or drawings and are uncertain.

The chains behind the UniProt entries cited, without tags or fusion partners. A line that says so, or that is headed by a name, gives the form on record, which may keep a tag or linker.
UniProt P13569, with tags, fused parts or gaps DEL508-508: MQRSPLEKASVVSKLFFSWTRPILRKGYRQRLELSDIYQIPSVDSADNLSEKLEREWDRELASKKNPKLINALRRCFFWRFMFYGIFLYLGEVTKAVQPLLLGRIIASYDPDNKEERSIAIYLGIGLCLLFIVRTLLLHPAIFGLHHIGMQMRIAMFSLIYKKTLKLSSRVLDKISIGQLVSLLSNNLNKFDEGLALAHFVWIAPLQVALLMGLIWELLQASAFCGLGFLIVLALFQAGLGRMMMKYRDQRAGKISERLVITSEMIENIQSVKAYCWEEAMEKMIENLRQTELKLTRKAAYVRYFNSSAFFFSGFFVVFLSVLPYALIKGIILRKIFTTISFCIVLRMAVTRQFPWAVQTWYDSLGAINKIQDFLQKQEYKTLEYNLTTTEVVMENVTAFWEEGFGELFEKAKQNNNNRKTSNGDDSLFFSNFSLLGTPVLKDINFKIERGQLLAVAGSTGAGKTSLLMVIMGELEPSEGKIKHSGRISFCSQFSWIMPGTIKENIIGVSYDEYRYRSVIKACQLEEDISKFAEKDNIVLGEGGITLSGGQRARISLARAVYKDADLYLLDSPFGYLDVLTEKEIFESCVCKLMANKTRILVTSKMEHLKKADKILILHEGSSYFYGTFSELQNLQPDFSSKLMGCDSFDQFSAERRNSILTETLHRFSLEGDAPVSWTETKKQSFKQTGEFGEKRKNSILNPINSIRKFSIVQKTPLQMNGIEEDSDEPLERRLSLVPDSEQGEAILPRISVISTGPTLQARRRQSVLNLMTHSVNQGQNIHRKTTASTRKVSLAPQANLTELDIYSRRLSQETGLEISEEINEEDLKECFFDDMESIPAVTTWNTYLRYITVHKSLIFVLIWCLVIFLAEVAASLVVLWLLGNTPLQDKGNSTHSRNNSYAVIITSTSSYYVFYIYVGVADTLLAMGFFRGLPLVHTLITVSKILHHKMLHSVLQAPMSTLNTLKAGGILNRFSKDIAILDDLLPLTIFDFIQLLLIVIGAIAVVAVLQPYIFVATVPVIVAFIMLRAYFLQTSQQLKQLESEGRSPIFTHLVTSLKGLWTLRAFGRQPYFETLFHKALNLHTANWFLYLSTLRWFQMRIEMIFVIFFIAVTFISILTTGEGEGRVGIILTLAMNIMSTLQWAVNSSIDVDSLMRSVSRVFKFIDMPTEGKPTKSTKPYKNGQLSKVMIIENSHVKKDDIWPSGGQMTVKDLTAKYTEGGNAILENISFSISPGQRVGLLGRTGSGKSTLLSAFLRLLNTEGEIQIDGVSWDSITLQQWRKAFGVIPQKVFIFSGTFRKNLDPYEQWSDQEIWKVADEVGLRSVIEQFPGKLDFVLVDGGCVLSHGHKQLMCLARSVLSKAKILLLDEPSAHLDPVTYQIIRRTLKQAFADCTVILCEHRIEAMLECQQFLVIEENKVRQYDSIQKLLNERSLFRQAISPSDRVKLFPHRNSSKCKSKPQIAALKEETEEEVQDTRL

Columns and labels:
[1] = target: T1, CFTR (F508del/MF-HBE cells) (Homo sapiens, UniProt P13569, DEL508-508); test: Ussing chamber assay of CFTR-mediated short-circuit currents, Assay A (0.1 μM to 25 μM, 6 concentrations); settings: for EC50: read-out: A EC50, with 33 nM potentiator and 18 μM Tezacaftor, 20% human serum; for A Max activity (%): with 33 nM potentiator and 18 μM Tezacaftor, 18-24 hours, 20% human serum
Procedure: (§1) Ussing chamber experiments were performed using human bronchial epithelial (HBE) cells derived from CF subjects heterozygous for F508del and a minimal function CFTR mutation (F508del/MF-HBE) and cultured as previously described (Neuberger T, Burton B, Clark H, Van Goor F Methods Mol Biol 2011:741:39-54). After four days the apical media was removed, and the cells were grown at an air liquid interface for >14 days prior to use.
(§2) To isolate the CFTR-mediated short-circuit (ISC) current, F508del/MF-HBE grown on Costar® Snapwell™ cell culture inserts were mounted in an Ussing chamber and the transepithelial ISC was measured under voltage-clamp recording conditions (Vhold=0 mV) at 37° C. The basolateral solution contained (in mM) 145 NaCl, 0.83 K2HPO4, 3.3 KH2PO4, 1.2 MgCl2, 1.2 CaCl2, 10 Glucose, 10 HEPES (pH adjusted to 7.4 with NaOH) and the apical solution contained (in mM) 145 NaGluconate, 1.2 MgCl2, 1.2 CaCl2, 10 glucose, 10 HEPES (pH adjusted to 7.4 with NaOH) and 30 μM amiloride to block the epithelial sodium channel. Forskolin (20 μM) was added to the apical surface to activate CFTR, followed by apical addition of a CFTR inhibitor cocktail consisting of BPO, GlyH-101, and CFTR inhibitor 172 (each at 20 μM final assay concentration) to specifically isolate CFTR currents. The CFTR-mediated ISC (μA/cm^2) for each condition was determined from the peak forskolin response to the steady-state current following inhibition.
(§3) The activity of the CFTR corrector compounds on the CFTR-mediated ISC was determined in Ussing chamber studies as described above. The F508del/MF-HBE cell cultures were either incubated with the corrector compounds at a range of concentrations in combination with 33 nM (6R,12R)-17-amino-12-methyl-6,15-bis(trifluoromethyl)-13,19-dioxa-3,4,18-triazatricyclo[12.3.1.12,5]nonadeca-1(18),2,4,14,16-pentaen-6-ol and 18 μM Tezacaftor or were incubated with the corrector compounds at a single fixed concentration of 1 μM in combination with 44 nM (6R,12R)-17-amino-12-methyl-6,15-bis(trifluoromethyl)-13,19-dioxa-3,4,18-triazatricyclo[12.3.1.12,5]nonadeca-1(18),2,4,14,16-pentaen-6-ol and 18 μM Tezacaftor for 18-24 hours at 37° C. and in the presence of 20% human serum. The concentration of corrector compounds with 44 nM or 33 nM (6R,12R)-17-amino-12-methyl-6,15-bis(trifluoromethyl)-13,19-dioxa-3,4,18-triazatricyclo[12.3.1.12,5]nonadeca-1(18),2,4,14,16-pentaen-6-ol and 18 μM Tezacaftor during the 18-24 hours incubations was kept constant throughout the Ussing chamber measurement of the CFTR-mediated ISC to ensure compounds were present throughout the entire experiment. The efficacy and potency of the putative F508del correctors was compared to that of the known Vertex corrector, (14S)-8-[3-(2-{Dispiro[2.0.2.1]heptan-7-yl}ethoxy)-1H-pyrazol-1-yl]-12,12-dimethyl-2λ^6-thia-3,9,11,18,23-pentaazatetracyclo[17.3.1.111,14.05,10]tetracosa-1(22),5,7,9,19(23),20-hexaene-2,2,4-trione, in combination with 18 μM Tezacaftor and 1 μM Ivacaftor.
(§4) • Assay A: 0.1 μM to 25 μM, 6 concentrations • Assay B: 0.00001 μM to 25 μM, 12 concentrations • Assay C: 0.026 μM to 25 μM, 6 concentrations • Assay D: Activity at single concentration of 1 μM

[2] = target: T1, CFTR (F508del/MF-HBE cells); test: Ussing chamber assay of CFTR-mediated short-circuit currents, Assay B (0.00001 μM to 25 μM, 12 concentrations); settings: for EC50: read-out: B EC50, with 33 nM potentiator and 18 μM Tezacaftor, 20% human serum; for B Max activity (%): with 33 nM potentiator and 18 μM Tezacaftor, 18-24 hours, 20% human serum
Procedure: as §1, §2
as §3, with “The efficacy and potency of the putative F508del correctors was compared to that of the known Vertex corrector, (14S)-8-[3-(2-{Dispiro[2.0.2.1]heptan-7-yl}ethoxy)-1H-pyrazol-1-yl]-12,12-dimethyl-2λ^6-thia-3,9,11,18,23-pentaazatetracyclo[17.3.1.111,14.05,10]tetracosa-1(22),5,7,9,19(23),20-hexaene-2,2,4-trione, in combination with 18 μM Tezacaftor and 1 μM Ivacaftor.” left out

[3] = target: T1, CFTR (F508del/MF-HBE cells); test: Ussing chamber assay of CFTR-mediated short-circuit currents, Assay C (0.026 μM to 25 μM, 6 concentrations); settings: for EC50: read-out: C EC50, with 33 nM potentiator and 18 μM Tezacaftor, 20% human serum; for C Max activity (%): with 33 nM potentiator and 18 μM Tezacaftor, 20% human serum
Procedure: as §1, §2, §3, §4

[4] = target: T1, CFTR (F508del/MF-HBE cells); test: Ussing chamber assay of CFTR-mediated short-circuit currents, Assay D (single concentration of 1 μM); settings: with 44 nM potentiator and 18 μM Tezacaftor, 18-24 hours, 20% human serum
Procedure: as §1, §2
The activity of the CFTR corrector compounds on the CFTR-mediated ISC was determined in Ussing chamber studies as described above. […]

| Compound | EC50 [1] [µM] | A Max activity (%) [1] | EC50 [3] [µM] | D activity at 1 μM (%) [4] | further results |
| --- | --- | --- | --- | --- | --- |
| Cc1cccc(C)c1-c1cc2nc(n1)NS(=O)(=O)c1cccc(c1)C(=O)N(Cc1cnc3oc(C(C)C)cc3n1)[C@H](CC13CC(C1)C3)CO2 | < 1 | +++ (+++ is >60%) | – | – | EC50 [2]: 3 to 30 µM; B Max activity (%) [2]: +++ (+++ is >60%) |
| CCC(C)(C)CC1COc2cc(-c3c(C)cccc3C)nc(n2)NS(=O)(=O)c2cccc(c2)C(=O)N1Cc1cnc2oc(C(C)C)cc2n1 (stereo not shown) | – | – | < 1 | +++ (+++ is >60%) | – |
| Cc1cccc(C)c1-c1cc2nc(n1)NS(=O)(=O)c1cccc(c1)C(=O)N(Cc1cnc3oc(C4CC4)cc3n1)[C@H](CCC1CC1)CO2 | – | – | – | – | EC50 [2]: 3 to 30 µM; B Max activity (%) [2]: +++ (+++ is >60%) |
| Cc1cccc(C)c1-c1cc2nc(n1)NS(=O)(=O)c1cccc(c1)C(=O)N(Cc1cnc3oc(C(C)C)c(C)c3n1)[C@H](C[C@H]1CCCCO1)CO2 | < 1 | +++ (+++ is >60%) | – | – | – |
| Cc1cccc(C)c1-c1cc2nc(n1)NS(=O)(=O)c1cccc(c1)C(=O)N(Cc1cnc3oc(C(C)C)cc3n1)[C@H](CC1CCCOC1)CO2 (single isomer, unassigned) [Compound I-66] | < 1 | +++ (+++ is >60%) | – | – | – |
| Cc1cccc(C)c1-c1cc2nc(n1)NS(=O)(=O)c1cccc(c1)C(=O)N(Cc1ncc3cc(C4CC4)n(C)c3n1)[C@H](CC(C)(C)C)CO2 | – | – | 1 to 3 | +++ (+++ is >60%) | C Max activity (%) ([3]; 18-24 hours): +++ (+++ is >60%) |
| Cc1cccc(C)c1-c1nc2nc(c1C)OC[C@@H](CC(C)(C)C)N(Cc1cnc3oc(C(C)(C)C)cc3n1)C(=O)c1cccc(c1)S(=O)(=O)N2 | – | – | 1 to 3 | +++ (+++ is >60%) | C Max activity (%) ([3]; 18-24 hours): +++ (+++ is >60%) |
| Cc1cccc(C)c1-c1nc2nc(c1C)OC[C@@H](COC(C)C)N(Cc1cnc3cc(C(C)(C)C(F)(F)F)n(C)c3n1)C(=O)c1cccc(c1)S(=O)(=O)N2 | – | – | < 1 | – | C Max activity (%) [3]: +++ (+++ is >60%) |
| Cc1cccc(C)c1-c1cc2nc(n1)NS(=O)(=O)c1cccc(c1)C(=O)N(Cc1ccn3nc(C(C)C)cc3n1)[C@H](CC1(C)CC1)CO2 | – | – | 1 to 3 | – | C Max activity (%) [3]: +++ (+++ is >60%) |
